Test results as given in patent US20220389061A1, “IMMUNOMODULATORS” (priority 2019, published 2022).
For at least one compound, name, drawing or mass did not settle the structure. Starred links: 1 amine or outer side, 2 acyl side, 3 side chain; linkers in the order of their positions; H or OH if unused. Positions of bridges follow the written chain, without caps; N, C: chain ends. Non-standard residues stand in square brackets, D forms with d. Residues, ends and D or L forms follow the SMILES beside them. Groups on a side chain read outwards from the residue. Chains are numbered I, II in the order given. *: point of attachment. X81 = O=C(C[C@@H](Cc1c[nH]c2ccccc12)C(=O)[*:2])[C@@H]1C[C@@H](O)CN1[*:1]; X62 = NCC[C@H](N[*:1])C(=O)C[C@@H](Cc1cn(CC(=O)O)c2ccccc12)C(=O)[*:2]; Trp(1-CH2COOH) = N[C@@H](Cc1cn(CC(=O)O)c2ccccc12)C(=O)O; Hyp = O=C(O)[C@@H]1C[C@@H](O)CN1; X61 = O=C(O)c1c(N*)sc2c1CCCC2; NMeNle = CCCC[C@H](NC)C(=O)O; X82 = S=C(Nc1cccc2nsnc12)*; NMeA = CN[C@@H](C)C(=O)O; Dab = NCC[C@H](N)C(=O)O; Dap = NC[C@H](N)C(=O)O; CO = O=C([*:1])[*:2]

Chains of the proteins cited; added tags and fusions are not shown. Residues count along the entry.
UniProt Q9NZQ7, 18-239: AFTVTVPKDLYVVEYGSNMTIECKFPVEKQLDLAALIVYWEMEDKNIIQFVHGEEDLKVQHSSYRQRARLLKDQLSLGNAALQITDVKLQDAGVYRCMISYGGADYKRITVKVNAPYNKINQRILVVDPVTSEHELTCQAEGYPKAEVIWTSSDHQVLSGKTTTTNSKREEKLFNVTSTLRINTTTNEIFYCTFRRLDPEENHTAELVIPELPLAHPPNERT

Target: T1, PD-1/PD-L1 (Homo sapiens, UniProt Q9NZQ7)
T1 construct: TVMV protease site linker (C); made in house; host or cells: HEK293T cells
Assay: PD-1/PD-L1 Homogenous Time-Resolved Fluorescence (HTRF) binding assay
Conditions: PD-L1-His 10 nM pre-incubated with inhibitor, PD-1-Ig 20 nM
Description: The ability of the compounds of formula (I) to bind to PD-L1 was investigated using a PD-1/PD-L1 Homogenous Time-Resolved Fluorescence (HTRF) binding assay.
The interaction of PD-1 and PD-L1 can be assessed using soluble, purified preparations of the extracellular domains of the two proteins. The PD-1 and PD-L1 protein extracellular domains were expressed as fusion proteins with detection tags, for PD-1, the tag was the Fc portion of Immunoglobulin (PD-1-Ig) and for PD-L1 it was the 6 histidine motif (PD-L1-His). All binding studies were performed in an HTRF assay buffer consisting of dPBS supplemented with 0.1% […] bovine serum albumin and 0.05% (v/v) Tween-20. For the h/PD-L1-His binding assay, inhibitors were pre-incubated with PD-L1-His (10 nM final) for 15 m in 4 μl of assay buffer, followed by addition of PD-1-Ig (20 nM final) in 1 μl of assay buffer and further incubation for 15 m. HTRF detection was achieved using europium crypate-labeled anti-Ig (1 nM final) and allophycocyanin (APC) labeled anti-His (20 nM final). Antibodies were diluted in HTRF detection buffer and 5 μl was dispensed on top of the binding reaction. […] Additional binding assays were established between the human proteins PD-1-Ig/PD-L2-His (20 & 5 nM, respectively) and CD80-His/PD-L1-Ig (100 & 10 nM, respectively). […]

Which IC50 does the source give for `CCCC[C@H]1C(=O)N(C)[C@@H](CCCC)C(=O)N[C@@H](CC(C)C)C(=O)N[C@H](C(=O)NCC(N)=O)CSCC(=O)N[C@@H](Cc2ccc(O)cc2)C(=O)N(C)[C@@H](C)C(=O)N[C@@H](CC(N)=O)C(=O)N2CCC[C@H]2C(=O)N[C@@H](CNC(=O)Nc2sc3c(c2C(=O)O)CCCC3)C(=O)N[C@@H](CC(C)C)C(=O)N2C[C@H](O)C[C@H]2C(=O)N[C@@H](Cc2c[nH]c3ccccc23)C(=O)N[C@@H](CCN)C(=O)C[C@@H](Cc2cn(CC(=O)O)c3ccccc23)C(=O)N1C` [Example 3063] (I: {CH2CO}-Y[NMeA]NP[Dap]([CO-X61])L[Hyp]W / II: [NMeNle][NMeNle]LCG-NH2; linker I:C-II:N via X62; thioether I:N-II:4) here?
Its IC50 is 1.9 nM.

Which IC50 does the source give for `CCCC[C@H]1C(=O)N(C)[C@@H](CCCC)C(=O)N[C@@H](CC(C)C)C(=O)N[C@H](C(=O)NCC(N)=O)CSCC(=O)N[C@@H](Cc2ccc(O)cc2)C(=O)N(C)[C@@H](C)C(=O)N[C@@H](CC(N)=O)C(=O)N2CCC[C@H]2C(=O)N[C@@H](CN)C(=O)N[C@@H](CC(C)C)C(=O)N2C[C@H](O)C[C@H]2C(=O)C[C@@H](Cc2c[nH]c3ccccc23)C(=O)N[C@@H](CCNC(=S)Nc2cccc3nsnc23)C(=O)N[C@@H](Cc2cn(CC(=O)O)c3ccccc23)C(=O)N1C` [Example 3039] ({CH2CO}-Y[NMeA]NP[Dap]L[X81][Dab](X82)[Trp(1-CH2COOH)][NMeNle][NMeNle]LCG-NH2; thioether N-13) here?
Its IC50 is 3.8 nM.
